Assay results as given in US20170008975A1, “Anti-Tissue Inhibitor of Metalloproteinase-4 (Timp-4) Antibodies and Methods of Use Thereof” (LANKENAU INSTITUTE FOR MEDICAL RESEARCH, priority 2014, published 2017).
For at least one compound, name, drawing or mass did not settle the structure.

Test system: MDA-MB-468 cells
Test: Clonogenic growth assay after irradiation
Type: cell-based, human
Conditions: cells pre-treated with the substance
Experimental: MDA-MB-468 cell were compared to the CD63 negative SK-Br-3 cells using a modified Boyden chamber to assess invasion in absence (Ctrl) and presence of 2nM TIMP-4 (N=6). […] Clonogenic growth assay (Ayene et al. (2000) Int. J. Radiat. Biol., 76:1523-1531) was used to determine the survival advantage for MDA-MB-468 cells under elevtedTIMP-4 conditions after irradiation (N=3). […] This effect can be prevented by pre-treating the cells with LY294002. […] Further, cells cultured in normal medium began to detach and die as they reached contact inhibition (day 10), whereas cells in TIMP-4-supplemented media continued to survive and grow. Growth augmented by TIMP-4 could be blocked by the addition of the TIMP-4 mAb of the instant invention. Briefly, TIMP-4 mAbs were obtained by delivering a purified glutathione-S-transferase (GST) chimeric protein comprising the human full-length 224 amino acid TIMP-4 (GenBank Accession No. NM_003256.2).

O=c1cc(N2CCOCC2)oc2c(-c3ccccc3)cccc12 [LY294002, reference compound]
effect on TIMP-4 increased survival after irradiation: prevented
